Assay results published in US20120225065A1.
Results are given in words; binding and its absence hold for the method and conditions named. Some entries that bind do so weakly or less than the wild type. Values belong to the binder of their own block, whether it stands above or below them.

Amino acid sequences for entries named in this document (tags omitted). A change or cut given only in a name is not applied to a line headed by its entry.
UniProt Q9HBE4: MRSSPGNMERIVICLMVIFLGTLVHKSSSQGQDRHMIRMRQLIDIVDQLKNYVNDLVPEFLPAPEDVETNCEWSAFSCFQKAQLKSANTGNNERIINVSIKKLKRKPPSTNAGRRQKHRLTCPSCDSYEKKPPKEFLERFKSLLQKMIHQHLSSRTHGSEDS

Legend:
[1] = target: Recombinant human IL-21 (human) (UniProt Q9HBE4); assay: SPR (Biacore T100), mAb immobilised, 100 nM IL-21 injected
[2] = target: Recombinant human IL-21 (human) (UniProt Q9HBE4); assay: Western blot
[3] = target: Recombinant human IL-21 (human) (UniProt Q9HBE4); assay: direct ELISA

binding [1]: binds
binding [2]: binds
binding [3]: binds
B1: Human anti-human IL-21 monoclonal antibody clone 366.552.11 (antibody, V domains shown)
VH: QVQLQESGPGLVKPSETLSLTCTVSGGSISSDFWGWIRQPPGKGLEWIGYISSRGSTNYNPSLKRRVTISVDTSRNQFSLKLSSVTAADTAVYYCARSAGVTDFDFWGQGTLVTVSS
VL: DIQMTQSPSSVSASVGDRVTITCRASQGISSWLAWYQHKPGKAPKLLIYVASSLQSGVPSRFSGSGSGTDFTLTISSLQPEDFATYYCQQANSFPLTFGGGTKVEIK

binding [1]: binds
binding [2]: binds
binding [3]: binds
B2: Human anti-human IL-21 monoclonal antibody clone 366.328.10 (antibody, V domains shown)
VH: EVQLVESGGGLVKPGGSLRLSCAASGFIFSSYSMNWVRQAPGKGLEWVSSITSGSYYIHYADSVKGRFTISRDNAKNSLYLQMNSLRAEDTAVYYCVRERGWGYYGMDVWGQGTTVTVSS
VL: AIQLTQSPSSLSASVGDRVTITCRASQDIDSALAWYQQKPGKAPKILIHDASSLESGVPSRFSGSGSGTDFTLTISSLQPEDFATYYCQQFNSYPYTFGQGTKLEIK
